Reference: PMC2093940
For at least one entry, the source does not settle the construct or the ends of the probe. Where cells or extracts were used, other partners may take part.

Molecular target: PITX3 wild-type (Homo sapiens) (UniProt O75364)
Assay: EMSA with supershift
Settings: poly[d(I-C)], several complexes, supershifted by anti-PITX3 antibody; LightShift kit binding buffer (composition and pH not given), 50 ng/ul poly[d(I-C)], 20 fmol probe, RT 15 min (30 min with antibody), 5% PAGE in 1x TBE; protein in a lysate after overexpression; protein details: C-terminal c-Myc and His (pcDNA3.1 MycHisC); label: 3' biotin

“GATCCTAATCCCGTCGCGTCGTAATCCGGATC (double strand) [bicoid probe (Bcd 2x 10n)]”: binds.
